Literature values in patent US6770467B2, “Screening method for ligands with class II P13 kinase modulating activity” (Ludwig Institute for Cancer Research, priority 1997, dated 2004).
At least one compound was matched to its structure with a doubt left.

Key:
[1] = tested on: PDGF receptor-associated PI 3-kinase activity; settings: literature; cited from earlier work
[2] = molecular target: myosin light chain kinase; settings: literature refs 37, 39; cited from earlier work

## COC[C@H]1OC(=O)c2coc3c2[C@@]1(C)C1=C(C3=O)[C@@H]2CCC(=O)[C@@]2(C)C[C@H]1OC(C)=O [Wortmannin]
[1]
  concentration potently inhibiting PDGF receptor-associated PI 3-kinase activity: 2-5 nanoinolar
[2]
  IC50: 0.17 to 0.2 µM
